# Further values from the same series stand in other lists.
# Columns and labels:
# Type in all cases: cell-based
# Conditions in all cases: U-87MG ATCC
# [1] = Inhibition of RTK/PI3K/AKT/mTOR signaling in human U87 cells assessed as up regulation of PGK1 gene expression at cytotoxic IC50 measured after 48 hrs relative to control
# [2] = Inhibition of RTK/PI3K/AKT/mTOR signaling in human U87 cells assessed as up regulation of PHD finger protein 21A gene expression at cytotoxic IC50 measured after 48 hrs relative to control
# [3] = Inhibition of RTK/PI3K/AKT/mTOR signaling in human U87 cells assessed as up regulation of solute carrier family 25 member 6 gene expression at cytotoxic IC50 measured after 48 hrs relative to control
# [4] = Inhibition of RTK/PI3K/AKT/mTOR signaling in human U87 cells assessed as down regulation of SAP30BP gene expression at cytotoxic IC50 measured after 48 hrs relative to control
# [5] = Inhibition of RTK/PI3K/AKT/mTOR signaling in human U87 cells assessed as down regulation of HERC6 gene expression at cytotoxic IC50 measured after 48 hrs relative to control
# [6] = Inhibition of RTK/PI3K/AKT/mTOR signaling in human U87 cells assessed as down regulation of RAB3IP gene expression at cytotoxic IC50 measured after 48 hrs relative to control
# [7] = Inhibition of RTK/PI3K/AKT/mTOR signaling in human U87 cells assessed as down regulation of SPOUT1 gene expression at cytotoxic IC50 measured after 48 hrs relative to control
# [8] = Inhibition of RTK/PI3K/AKT/mTOR signaling in human U87 cells assessed as up regulation of NDUFS2 gene expression at cytotoxic IC50 measured after 48 hrs relative to control
# [9] = Inhibition of RTK/PI3K/AKT/mTOR signaling in human U87 cells assessed as up regulation of syntaxin 10 gene expression at cytotoxic IC50 measured after 48 hrs relative to control
# [10] = Inhibition of RTK/PI3K/AKT/mTOR signaling in human U87 cells assessed as down regulation of ZNF451 gene expression at cytotoxic IC50 measured after 48 hrs relative to control
# [11] = Inhibition of RTK/PI3K/AKT/mTOR signaling in human U87 cells assessed as up regulation of unc-13 homolog A gene expression at cytotoxic IC50 measured after 48 hrs relative to control
# [12] = Inhibition of RTK/PI3K/AKT/mTOR signaling in human U87 cells assessed as down regulation of RNF40 gene expression at cytotoxic IC50 measured after 48 hrs relative to control
# [13] = Inhibition of RTK/PI3K/AKT/mTOR signaling in human U87 cells assessed as down regulation of UBR1 gene expression at cytotoxic IC50 measured after 48 hrs relative to control
# [14] = Inhibition of RTK/PI3K/AKT/mTOR signaling in human U87 cells assessed as down regulation of CNPPD1 gene expression at cytotoxic IC50 measured after 48 hrs relative to control
# [15] = Inhibition of RTK/PI3K/AKT/mTOR signaling in human U87 cells assessed as up regulation of solute carrier family 36 member 4 gene expression at cytotoxic IC50 measured after 48 hrs relative to control
# [16] = Inhibition of RTK/PI3K/AKT/mTOR signaling in human U87 cells assessed as up regulation of myotubularin related protein 11 gene expression at cytotoxic IC50 measured after 48 hrs relative to control
# [17] = Inhibition of RTK/PI3K/AKT/mTOR signaling in human U87 cells assessed as down regulation of TK1 gene expression at cytotoxic IC50 measured after 48 hrs relative to control
# [18] = Inhibition of RTK/PI3K/AKT/mTOR signaling in human U87 cells assessed as down regulation of EXT2 gene expression at cytotoxic IC50 measured after 48 hrs relative to control
# [19] = Inhibition of RTK/PI3K/AKT/mTOR signaling in human U87 cells assessed as down regulation of LAMP2 gene expression at cytotoxic IC50 measured after 48 hrs relative to control
# [20] = Inhibition of RTK/PI3K/AKT/mTOR signaling in human U87 cells assessed as down regulation of NCKAP1 gene expression at cytotoxic IC50 measured after 48 hrs relative to control
# [21] = Inhibition of RTK/PI3K/AKT/mTOR signaling in human U87 cells assessed as down regulation of NBPF1 gene expression at cytotoxic IC50 measured after 48 hrs relative to control
# [22] = Inhibition of RTK/PI3K/AKT/mTOR signaling in human U87 cells assessed as up regulation of nuclear factor, erythroid 2 like 1 gene expression at cytotoxic IC50 measured after 48 hrs relative to control
# [23] = Inhibition of RTK/PI3K/AKT/mTOR signaling in human U87 cells assessed as down regulation of ATAD3A gene expression at cytotoxic IC50 measured after 48 hrs relative to control
# [24] = Inhibition of RTK/PI3K/AKT/mTOR signaling in human U87 cells assessed as down regulation of BCL2L12 gene expression at cytotoxic IC50 measured after 48 hrs relative to control
# [25] = Inhibition of RTK/PI3K/AKT/mTOR signaling in human U87 cells assessed as down regulation of STRIP2 gene expression at cytotoxic IC50 measured after 48 hrs relative to control
# [26] = Inhibition of RTK/PI3K/AKT/mTOR signaling in human U87 cells assessed as up regulation of long intergenic non-protein coding RNA 857 gene expression at cytotoxic IC50 measured after 48 hrs relative to control
# [27] = Inhibition of RTK/PI3K/AKT/mTOR signaling in human U87 cells assessed as up regulation of LRRC75A-AS1 gene expression at cytotoxic IC50 measured after 48 hrs relative to control
# [28] = Inhibition of RTK/PI3K/AKT/mTOR signaling in human U87 cells assessed as down regulation of ZWILCH gene expression at cytotoxic IC50 measured after 48 hrs relative to control
# [29] = Inhibition of RTK/PI3K/AKT/mTOR signaling in human U87 cells assessed as up regulation of solute carrier family 38 member 1 gene expression at cytotoxic IC50 measured after 48 hrs relative to control
# [30] = Inhibition of RTK/PI3K/AKT/mTOR signaling in human U87 cells assessed as down regulation of INO80D gene expression at cytotoxic IC50 measured after 48 hrs relative to control
# [31] = Inhibition of RTK/PI3K/AKT/mTOR signaling in human U87 cells assessed as up regulation of myelin regulatory factor gene expression at cytotoxic IC50 measured after 48 hrs relative to control
# [32] = Inhibition of RTK/PI3K/AKT/mTOR signaling in human U87 cells assessed as down regulation of THADA gene expression at cytotoxic IC50 measured after 48 hrs relative to control
smiles,measurement,setting,value
CC(=O)C(=NNc1ccccc1C#N)C(C)=O,log2FC,[1],1.94
same,log2FC,[2],0.756
same,log2FC,[3],0.762
same,log2FC,[4],-0.891
same,log2FC,[5],-1.57
same,log2FC,[6],-0.638
same,log2FC,[7],-0.817
same,log2FC,[8],0.575
same,log2FC,[9],0.996
same,log2FC,[10],-0.543
same,log2FC,[11],1.51
same,log2FC,[12],-0.853
same,log2FC,[13],-0.785
same,log2FC,[14],-0.675
same,log2FC,[15],1.03
same,log2FC,[16],1.28
same,log2FC,[17],-0.652
same,log2FC,[18],-0.8
same,log2FC,[19],-0.699
same,log2FC,[20],-0.577
same,log2FC,[21],-0.782
same,log2FC,[22],0.647
same,log2FC,[23],-0.698
same,log2FC,[24],-1.34
same,log2FC,[25],-1.78
same,log2FC,[26],1.37
same,log2FC,[27],0.549
same,log2FC,[28],-0.984
same,log2FC,[29],1.03
same,log2FC,[30],-0.956
same,log2FC,[31],0.876
same,log2FC,[32],-0.658

# Reference: ChEMBL document CHEMBL4316593 (Eur J Med Chem, 2019)
